Among the data in ChEMBL document CHEMBL1148303, “Design and synthesis of alpha-aryloxy-alpha-methylhydrocinnamic acids: a novel class of dual peroxisome proliferator-activated receptor alpha/gamma agonists” (J Med Chem, 2004) are IC50 and EC50 values, retold here.

Assay [1] addresses T1, Peroxisome proliferator-activated receptor gamma (Homo sapiens, UniProt P37231).
T1 sequence (P37231 whole entry): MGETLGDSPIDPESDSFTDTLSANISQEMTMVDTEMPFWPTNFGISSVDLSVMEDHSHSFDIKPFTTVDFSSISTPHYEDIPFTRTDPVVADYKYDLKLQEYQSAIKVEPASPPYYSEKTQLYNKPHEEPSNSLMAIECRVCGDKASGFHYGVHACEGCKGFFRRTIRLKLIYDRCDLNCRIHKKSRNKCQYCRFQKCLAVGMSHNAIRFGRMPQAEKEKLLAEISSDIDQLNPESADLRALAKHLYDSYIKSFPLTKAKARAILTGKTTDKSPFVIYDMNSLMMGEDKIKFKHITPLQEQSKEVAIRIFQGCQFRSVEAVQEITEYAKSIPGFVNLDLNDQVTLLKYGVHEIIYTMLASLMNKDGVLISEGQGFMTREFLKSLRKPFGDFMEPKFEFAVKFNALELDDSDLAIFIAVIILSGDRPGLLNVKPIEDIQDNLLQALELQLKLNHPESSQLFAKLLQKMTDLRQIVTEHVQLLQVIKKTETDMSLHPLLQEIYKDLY

For assay [2], the target named is T1, Peroxisome proliferator-activated receptor gamma. The source holds these as a separate data set.

Each structure is given as a SMILES string.

In the case of `Cc1oc(-c2ccc(-c3ccccc3)cc2)nc1CCOc1ccc(CC(C)(Oc2ccccc2)C(=O)O)cc1` (centres undefined), in assay [1], the IC50 was 169 nM. Besides, a half-maximal response in assay [2] (EC50) required 7 nM.
Consider `Cc1oc(-c2cccc(-c3ccccc3)c2)nc1CCOc1ccc(CC(C)(Oc2ccccc2)C(=O)O)cc1` (centres undefined), for which 71 nM corresponded to half-maximal inhibition in assay [1] (IC50). In assay [2], this molecule had an EC50 of 6 nM.
